Measurements taken from the supplement of paper PMC10338343.
± gives the standard deviation. The entries are a selection whose mix differs from that of the whole data set. Many of these values have a large error. The list shows a part of the results.

Key:
[1] = test system: MILI (PIWIL2) piRISC loaded with L1MC piRNA (26 nt); experiment: pre-steady-state target cleavage rate (min^-1); higher = faster piRNA-guided slicing of the target; conditions: guide: L1MC piRNA 5'p-UAACUAAAUACUAUGCAAGCUGUAGG;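 also: 1 nM active piRISC with 0.1 nM target library at 33 °C single turnover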
Procedure, shortened: (§1)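 The pre-steady-state cleavage rate was derived from a burst-and-steady-state fit of Cleave-'n-Seq data. For these assays, 1 nM active affinity-purified piRISC loaded with a single synthetic guide was mixed with […] a transcribed, DNA-blocked target RNA library in HEPES–potassium acetate buffer at 33 °C, with or without 500 nM GTSF1 partner protein, for 0–8 or 0–960 min. Sequencing counts of uncleaved targets were normalised to depth and to weakly complementary targets, and k3 was capped at 0.0001 min^-1 after three trials were pooled.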

[2] = test system: EfPiwi piRISC loaded with L1MC piRNA (26 nt); experiment: pre-steady-state target cleavage rate (min^-1); guide: L1MC piRNA 5'p-UAACUAAAUACUAUGCAAGCUGUAGG; MIWI and MILI are mouse PIWI proteins and EfPiwi is from a freshwater sponge; tags in brackets are library labels; higher = faster piRNA-guided slicing of the target
Procedure, shortened: as §1

[3] = auxiliary factor: 500 nM mouse GTSF1
[4] = auxiliary factor: none (no GTSF1)
[5] = auxiliary factor: none (no Gtsf1)
[6] = auxiliary factor: 500 nM Ephydatia muelleri Gtsf1

## UCCUGGAUCAGCUAGCAUAGUAAUUAGUUA
[1]; [3]
  pre-steady-state target cleavage rate: 0.152 ± 0.015
[1]; [4]
  pre-steady-state target cleavage rate: 0.00502 ± 0.0022
[2]; [5]
  pre-steady-state target cleavage rate: 0.000531 ± 0.012

## UCCUGGAACAGCUUGCGUAGUAUUUAGUUA
[1]; [3]
  pre-steady-state target cleavage rate: 0.277 ± 0.016
[1]; [4]
  pre-steady-state target cleavage rate: 0.00716 ± 0.0018
[2]; [5]
  pre-steady-state target cleavage rate: 0.0011 ± 0.01

## UCCUGCUACAGCUUGGAUAGAAUUUAGUUA
[1]; [3]
  pre-steady-state target cleavage rate: 0.0646 ± 0.014
[1]; [4]
  pre-steady-state target cleavage rate: 0.0016 ± 0.004
[2]; [5]
  pre-steady-state target cleavage rate: 0.00103 ± 0.0089

## UCCUGGUACAGCUUGCAUAGUAUAUUAGUUA
[1]; [3]
  pre-steady-state target cleavage rate: 0.26 ± 0.039
[1]; [4]
  pre-steady-state target cleavage rate: 0.0117 ± 0.0038
[2]; [5]
  pre-steady-state target cleavage rate: 0.00112 ± 0.012

## UCCUGGUUCAGCUUGCAAAGUAUUUAGUUA
[1]; [3]
  pre-steady-state target cleavage rate: 0.137 ± 0.018
[1]; [4]
  pre-steady-state target cleavage rate: 0.0176 ± 0.0038
[2]; [6]
  pre-steady-state target cleavage rate: 0.0681 ± 0.019

## UCCUGGAUGUGCUUGCAUAGAAUUUUGUUA
[1]; [3]
  pre-steady-state target cleavage rate: 0.00435 ± 0.0052
[1]; [4]
  pre-steady-state target cleavage rate: 0.00128 ± 0.0063
[2]; [6]
  pre-steady-state target cleavage rate: 0.000495 ± 0.0069

## UCCUGGAUGUGCUUGCAUAGUAUUUGGUUA
[1]; [3]
  pre-steady-state target cleavage rate: 0.131 ± 0.013
[1]; [4]
  pre-steady-state target cleavage rate: 0.01 ± 0.0034
[2]; [6]
  pre-steady-state target cleavage rate: 0.00579 ± 0.003

## UCCUGGAUGUCCUUGCAUAGUAGUUAGUUA
[1]; [3]
  pre-steady-state target cleavage rate: 0.13 ± 0.036
[1]; [4]
  pre-steady-state target cleavage rate: 0.00421 ± 0.002
[2]; [6]
  pre-steady-state target cleavage rate: 0.00555 ± 0.0031

## UCCUGCUAGACCUUGCAUAGUAUUUAGUUA
[1]; [3]
  pre-steady-state target cleavage rate: 0.171 ± 0.02
[1]; [4]
  pre-steady-state target cleavage rate: 0.00811 ± 0.0031
[2]; [5]
  pre-steady-state target cleavage rate: 0.000879 ± 0.009

## UCCUACUACAGCUUGCAUAGUAUUUAGUUA
[1]; [3]
  pre-steady-state target cleavage rate: 0.294 ± 0.02
[1]; [4]
  pre-steady-state target cleavage rate: 0.00883 ± 0.0027
[2]; [6]
  pre-steady-state target cleavage rate: 0.0579 ± 0.018

## UCCUGCUACAGCUUGCAUAGUAUUUAGUGA
[1]; [3]
  pre-steady-state target cleavage rate: 0.193 ± 0.033
[1]; [4]
  pre-steady-state target cleavage rate: 0.00299 ± 0.0027
[2]; [6]
  pre-steady-state target cleavage rate: 0.00567 ± 0.0019

## UCCUGGAUGUGCUUGCAUAGUGUUUAGUUA
[1]; [3]
  pre-steady-state target cleavage rate: 0.0653 ± 0.013
[1]; [4]
  pre-steady-state target cleavage rate: 0.00396 ± 0.0032
[2]; [6]
  pre-steady-state target cleavage rate: 0.0123 ± 0.0051

## UCCUGGUACAGCUUGCAUAGUAUUUACAAA
[1]; [3]
  pre-steady-state target cleavage rate: 0.0693 ± 0.017
[1]; [4]
  pre-steady-state target cleavage rate: 0.00152 ± 0.0036
[2]; [5]
  pre-steady-state target cleavage rate: 0.000965 ± 0.0091

## UCCUCCUACAGCAUGCAUUGUAUUUAGUUA
[1]; [3]
  pre-steady-state target cleavage rate: 0.217 ± 0.015
[1]; [4]
  pre-steady-state target cleavage rate: 0.0102 ± 0.0027
[2]; [6]
  pre-steady-state target cleavage rate: 0.0134 ± 0.0043

## UCCUGGAUCAGCUUGCAUAGAAUUUAGAAA
[1]; [3]
  pre-steady-state target cleavage rate: 0.0123 ± 0.0052
[1]; [4]
  pre-steady-state target cleavage rate: 0.000603 ± 0.0096
[2]; [6]
  pre-steady-state target cleavage rate: 0.00102 ± 0.0052

## UCCUCCUACAGCCUUGCAUAGUAUUUAGUUA
[1]; [3]
  pre-steady-state target cleavage rate: 0.262 ± 0.019
[1]; [4]
  pre-steady-state target cleavage rate: 0.0101 ± 0.0026
[2]; [6]
  pre-steady-state target cleavage rate: 0.0222 ± 0.0079

## UCCUGCUACAGGUUGCAUAGUAUUUAGUUA
[1]; [3]
  pre-steady-state target cleavage rate: 0.246 ± 0.011
[1]; [4]
  pre-steady-state target cleavage rate: 0.013 ± 0.0028
[2]; [5]
  pre-steady-state target cleavage rate: 0.000964 ± 0.0087

## UCCUCGCUACAGCUUGCAUAGUAUUUAGUUA
[1]; [3]
  pre-steady-state target cleavage rate: 0.276 ± 0.02
[1]; [4]
  pre-steady-state target cleavage rate: 0.00839 ± 0.0032
[2]; [6]
  pre-steady-state target cleavage rate: 0.0505 ± 0.017

## UCCUCCUACAGGUUGCAUAGUAUUUAGAUA
[1]; [3]
  pre-steady-state target cleavage rate: 0.123 ± 0.017
[1]; [4]
  pre-steady-state target cleavage rate: 0.0018 ± 0.0031
[2]; [6]
  pre-steady-state target cleavage rate: 0.00362 ± 0.00095

## UCCUGGAUGUCCUUGCAUAGUAAUUAGUUA
[1]; [3]
  pre-steady-state target cleavage rate: 0.111 ± 0.019
[1]; [4]
  pre-steady-state target cleavage rate: 0.00618 ± 0.0018
[2]; [6]
  pre-steady-state target cleavage rate: 0.00215 ± 0.0034

## UCCUCCUACAGCUUGCUUUGUAUUUAGUUA
[1]; [3]
  pre-steady-state target cleavage rate: 0.18 ± 0.017
[1]; [4]
  pre-steady-state target cleavage rate: 0.00401 ± 0.0023
[2]; [6]
  pre-steady-state target cleavage rate: 0.0093 ± 0.0052

## UCCUGGAUGUCGUUCGCAUAGUAUUUAGUUA
[1]; [3]
  pre-steady-state target cleavage rate: 0.101 ± 0.013
[1]; [4]
  pre-steady-state target cleavage rate: 0.00567 ± 0.0028
[2]; [6]
  pre-steady-state target cleavage rate: 0.00486 ± 0.0031

## UCCUGGAACAGCUUGCAUACUUUUUAGUUA
[1]; [3]
  pre-steady-state target cleavage rate: 0.000911 ± 0.014
[1]; [4]
  pre-steady-state target cleavage rate: 0.002 ± 0.0031
[2]; [6]
  pre-steady-state target cleavage rate: 0.000898 ± 0.0064

## UCCUGGAACUGCUUGCAUAGUAAUUAGUUA
[1]; [3]
  pre-steady-state target cleavage rate: 0.159 ± 0.012
[1]; [4]
  pre-steady-state target cleavage rate: 0.00625 ± 0.0021
[2]; [5]
  pre-steady-state target cleavage rate: 0.00182 ± 0.0071
